Test results as given in patent US8497072.
No constants are given. Whether binding was seen depends on the method and setting. Some results given as binding are weak or reduced against the parent protein; the word gives no strength.

Amino acid sequences for entries named in this document (tags omitted). Residues count along the entry.
UniProt P05067, residues 672-713: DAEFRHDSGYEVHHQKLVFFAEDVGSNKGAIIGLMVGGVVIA

Assays:
[1] = molecular target: Aβ(1-42) globulomer (human) (UniProt P05067); experiment: dot blot
Aβ(1-42) fibrils (human) = Aβ(1-42) fibrils (human) (UniProt P05067); experiment: co-sedimentation with Aβ(1-42) fibrils, Coomassie SDS-PAGE
[2] = molecular target: Aβ(1-42) globulomer (human) (UniProt P05067); experiment: dot blot immunoassay
[3] = molecular target: Aβ(1-42) globulomer (human) (UniProt P05067); experiment: native PAGE Western blot
[4] = molecular target: fibrillar Aβ peptide deposits (amyloid plaques and vascular amyloid) in brain sections (human) (UniProt P05067); experiment: immunohistochemistry on neocortex sections of AD patients and Tg2576 mice
[5] = molecular target: fibrillar Aβ peptide deposits (amyloid plaques and vascular amyloid) in brain sections (human) (UniProt P05067); experiment: immunohistochemistry, image analysis of plaque optical density

binding [1]	binding (Aβ(1-42) fibrils (human))	binding [2]	binding [3]	binding [4]	binding [5]	Binder
binds	binds	binds	binds	binds	binds	monoclonal antibody 8F5 (antibody, V domains shown) VH: EVQLVESGGGLVQPGGSLKLSCAASGFTFSSYGMSWVRQTPDKRLELVASINSNGGSTYYPDSVKGRFTISRDNAKNTLYLQMSSLKSEDTAMYYCASGDYWGQGSTLTVSS VL: DVVMTQTPLSLPVSLGDQASISCRSSQSLVYSNGDTYLHWYLQKPGQSPKLLIYKVSNRFSGVPDRFSGSGSGTDFTLKISRVEAEDLGVYFCSQSTHVPWTFGGGTKLEIKR
binds	–	–	–	binds	binds	monoclonal antibody 8C5 (antibody, V domains shown) VH: EVQLVESGGGLVQPGGSLKLSCTASGFTFSSYGMSWVRQTPDKRLELVASIKNNGGSTYYPDSLKGRFTISRDNAKNTLYLQMSSLKSEDTAMYYCASGDYWGQGTTLTVSS VL: DVVMTQTPLSLPVSLGDQASISCRSSQSLVHSNGDTFLHWYLQKPGQSPKLLIYKVSNRFSGVPDRFSGSGSGTDFTLKISRVEAEDLGIYFCSQSIHVPWTFGGGTKLEIKR
